Measurements as given in paper PMC11167181.
No constants are given. Whether binding was seen depends on the method and setting. In cells and extracts the contact can be indirect. Some results given as binding are weak or reduced against the parent protein; the word gives no strength.

Target: T1, peroxiredoxin 5 (mouse (endogenous in C2C12)) (UniProt P99029)
T1 sequence: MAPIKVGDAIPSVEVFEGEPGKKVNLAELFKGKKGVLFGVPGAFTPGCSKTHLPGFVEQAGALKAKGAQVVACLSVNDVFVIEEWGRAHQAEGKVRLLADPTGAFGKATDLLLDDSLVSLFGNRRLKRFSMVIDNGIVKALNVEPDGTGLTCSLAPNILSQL
Experiment: co-IP; C2C12 myotube lysates mixed with the indicated antibody and protein A/G-agarose beads, 4 h at 4°C; PRDX5 precipitated, Nrf2 and UNG1 detected by Western blotting; cells treated with TBHP with or without myricanol (MY)

B1: Nrf2 (protein, UniProt Q60795 1-597)
chain: MMDLELPPPGLQSQQDMDLIDILWRQDIDLGVSREVFDFSQRQKDYELEKQKKLEKERQEQLQKEQEKAFFAQFQLDEETGEFLPIQPAQHIQTDTSGSASYSQVAHIPKQDALYFEDCMQLLAETFPFVDDHESLALDIPSHAESSVFTAPHQAQSLNSSLEAAMTDLSSIEQDMEQVWQELFSIPELQCLNTENKQLADTTAVPSPEATLTEMDSNYHFYSSISSLEKEVGNCGPHFLHGFEDSFSSILSTDDASQLTSLDSNPTLNTDFGDEFYSAFIAEPSDGGSMPSSAAISQSLSELLDGTIEGCDLSLCKAFNPKHAEGTMEFNDSDSGISLNTSPSRASPEHSVESSIYGDPPPGFSDSEMEELDSAPGSVKQNGPKAQPAHSPGDTVQPLSPAQGHSAPMRESQCENTTKKEVPVSPGHQKAPFTKDKHSSRLEAHLTRDELRAKALHIPFPVEKIINLPVDDFNEMMSKEQFNEAQLALIRDIRRRGKNKVAAQNCRKRKLENIVELEQDLGHLKDEREKLLREKGENDRNLHLLKRRLSTLYLEVFSMLRDEDGKPYSPSEYSLQQTRDGNVFLVPKSKKPDTKKN
Q: With B1 as the binder, how does the binding read?
A: binds
